Measurements published in PMC8590685.
These are yes or no findings as the source states them, for the method shown. In cells and extracts the contact can be indirect. Some binding calls cover weakened binding; strength is not graded here. Sequences can lack the tags named with a protein.

Target: T1, Flag-tagged TRAF7 (HEK293T) (UniProt Q6Q0C0)
T1 sequence: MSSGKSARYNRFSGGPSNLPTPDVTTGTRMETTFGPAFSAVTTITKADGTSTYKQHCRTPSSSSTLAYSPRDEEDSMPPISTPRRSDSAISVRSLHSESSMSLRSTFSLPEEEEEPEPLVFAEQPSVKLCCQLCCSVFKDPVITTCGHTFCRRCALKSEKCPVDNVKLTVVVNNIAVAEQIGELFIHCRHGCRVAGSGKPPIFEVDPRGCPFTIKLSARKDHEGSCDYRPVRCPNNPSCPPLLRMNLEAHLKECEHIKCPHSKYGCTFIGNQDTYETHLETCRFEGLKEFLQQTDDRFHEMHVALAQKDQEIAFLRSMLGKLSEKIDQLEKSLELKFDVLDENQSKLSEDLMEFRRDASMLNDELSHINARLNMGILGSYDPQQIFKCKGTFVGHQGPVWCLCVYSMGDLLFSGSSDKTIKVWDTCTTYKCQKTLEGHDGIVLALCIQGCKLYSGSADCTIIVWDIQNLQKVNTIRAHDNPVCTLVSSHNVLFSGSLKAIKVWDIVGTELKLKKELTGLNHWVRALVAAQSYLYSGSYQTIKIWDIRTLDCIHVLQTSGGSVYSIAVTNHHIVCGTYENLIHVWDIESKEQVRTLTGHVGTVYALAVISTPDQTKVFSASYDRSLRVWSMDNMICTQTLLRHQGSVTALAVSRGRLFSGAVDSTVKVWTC
Test: co-IP; 'exogenous co-IP': HEK293T cells co-transfected with Flag/Ha-tagged TRAF7 and P53; same steps as the endogenous co-IP (antibody and Protein A/G magnetic beads 3 h, high salt and low salt washes)

binding: binds
Substance: Ha-tagged P53 (from UniProt P04637 1-393)
